# The whole screen tested about 220,000 compounds, of which about 770 (0.35%) were called active. The shares of active, inactive and inconclusive entries below differ from those in the screen. No stated cut-off is given here; in the data, active means binding response below about 49% or above about 150%; inconclusive means no clear call, values can overlap the other calls; inactive means in between.
# Chains of the proteins cited; added tags and fusions are not shown.
# UniProt P09471, whole entry, looked up: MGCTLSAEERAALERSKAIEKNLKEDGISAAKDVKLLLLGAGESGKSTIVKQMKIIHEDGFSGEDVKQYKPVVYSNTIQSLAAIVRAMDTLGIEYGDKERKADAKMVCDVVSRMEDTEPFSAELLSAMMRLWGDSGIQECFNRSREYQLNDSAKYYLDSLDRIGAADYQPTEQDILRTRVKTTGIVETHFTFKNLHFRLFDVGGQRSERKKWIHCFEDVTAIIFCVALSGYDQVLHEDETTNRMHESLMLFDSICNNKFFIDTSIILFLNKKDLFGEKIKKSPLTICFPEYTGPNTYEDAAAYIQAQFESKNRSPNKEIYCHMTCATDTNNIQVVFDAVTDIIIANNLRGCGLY
# Molecular target: Guanine nucleotide-binding protein G(o) subunit alpha (Homo sapiens) (UniProt P09471)
# Experiment: RGS7-Galphao binding modulators, primary screen, biochemical, multiplexed bead flow cytometry (AID 1439);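 further: fluorescent Galphao held in activated GDP-AlF4 state binding bead-coupled RGS7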
# Conditions: at 10 µM, actives lie on both sides
row,Compound,binding response (% of control)
1,OCc1nc2ccc(Cl)cc2[nH]1,inconclusive: 126%
2,Cc1c(NS(=O)(=O)c2ccc(N(C)C3CCCCC3)c([N+](=O)[O-])c2)c(=O)n(-c2ccccc2)n1C,inactive: 91.2%
3,c1ccc(Oc2cc(-c3ccccc3)ncn2)cc1,inactive: 101%
4,Cc1ccc(N/C=C2\C(=O)N(c3ccc(F)cc3F)C(c3cccnc3)S2(=O)=O)cc1 (stereo unspecified),inconclusive: 89.2%
5,COCCCNC(=S)N/N=C/c1ccc2c(c1)OCO2,inconclusive: 75.8%
6,COc1cc(NC(=O)CCCOc2ccc(Cl)cc2Cl)c(C(=O)O)cc1OC,inconclusive: 142%
7,CN(C)c1ccc(/C=N/OC(=O)Nc2ccccc2Cl)cc1,inactive: 101%
8,C/C(=N\NC(=O)c1ccccn1)c1ccc(Cl)cc1,inconclusive: 117%
9,CCC(C)Nc1nc2c(c(=O)n(C)c(=O)n2C)n1Cc1ccc(Cl)cc1 (stereo unspecified),inconclusive: 115%
10,O=C(COc1ncnc2cc(Cl)ccc12)c1ccccc1,inconclusive: 60.2%
11,C=CCNC(=S)Nc1cccc2[nH]ncc12,inconclusive: 107%
12,O=C(O)CC(CC(=O)O)(C(=O)O)c1ccccc1,inconclusive: 95.6%
13,CC1=CC2=NC(=O)/C(=C\c3cccn3CCOc3cc(C)cc(C)c3)C(=N)N2O1,inactive: 101%
14,CCC1=C(OC(=O)N(CC)CC)N2C(=O)OC(=NCc3ccccc3)[C@]2(C)[C@H]2C1=CC[C@H]1C(=O)N(c3ccccc3)C(=O)[C@H]12,inconclusive: 80.9%
15,COc1ccc(CC(=O)NCc2nnc(SCc3ccc([N+](=O)[O-])cc3)n2C)cc1,inconclusive: 59.6%
16,Cc1ccc(CNc2ccc3c(c2)ncn3C(C)C)cc1,inconclusive: 108%
17,O=C(NCCCn1ccnc1)c1ccc(N2CCCCC2)c([N+](=O)[O-])c1,inconclusive: 122%
18,O=C(O)c1ccc(-c2nnn(Cc3cccc(C(F)(F)F)c3)n2)cc1,inconclusive: 67.5%
19,Cc1nn(-c2ccccc2)c(N)c1N=Nc1cccc(S(=O)(=O)N2CCOCC2)c1,inconclusive: 102%
20,COc1cc2c(cc1OC)CN(CC(=O)NC(=O)NC1CCCCC1)CC2,inactive: 100%
21,COC(=O)CC1C(=O)NC(C)=C1C(=O)OC (stereo unspecified),inconclusive: 106%
22,CC(C)N1C(=O)CCC1C(=O)NCc1cccs1 (stereo unspecified),inactive: 106%
23,N#C/C(=C(/O)CCl)c1nc(-c2ccccc2)cs1,inconclusive: 103%

# 4 entries drawn at random from those above, as already listed:
row,Compound,binding response (% of control)
3,c1ccc(Oc2cc(-c3ccccc3)ncn2)cc1,inactive: 101%
12,O=C(O)CC(CC(=O)O)(C(=O)O)c1ccccc1,inconclusive: 95.6%
23,N#C/C(=C(/O)CCl)c1nc(-c2ccccc2)cs1,inconclusive: 103%
6,COc1cc(NC(=O)CCCOc2ccc(Cl)cc2Cl)c(C(=O)O)cc1OC,inconclusive: 142%

# Remaining list, next part

row,Compound,binding response (% of control)
1,C=CCNC(=O)/C(=C\C=C\c1ccccc1)NC(=O)c1ccc(OCCCC)cc1,active: 13.2%
2,O=C(CCc1ccccc1)NCC(=O)N/N=C/c1ccc(O)cc1O,inconclusive: 105%
3,O=C(Oc1cccnc1)c1cccc(Cl)c1,inactive: 104%
4,Nc1ccccc1SC1CC(=O)N(c2ccc3c(c2)OCCO3)C1=O (stereo unspecified),inconclusive: 89%
5,CCCCNC(=O)C1CCCN(S(=O)(=O)c2c(C)noc2/C=C/c2cccs2)C1 (stereo unspecified),inconclusive: 62.4%
6,Brc1ccccc1-c1nnc(COc2ncnc3ccccc23)o1,inconclusive: 93.2%
7,CN(C)S(=O)(=O)c1cc(NC(=O)COC(=O)c2ccc3c(c2)OCO3)ccc1Cl,inactive: 99.1%
8,N=C1C(c2ccccc2)=C(O)CN1c1ccccc1,inconclusive: 81.4%
9,O=C(Nc1ccn(Cc2ccccc2)n1)c1ccc(F)cc1,inconclusive: 116%
10,CCC(C(=O)Nc1ccccc1)c1ccccc1 (stereo unspecified),inactive: 101%
11,O=C(CN1C(=O)/C(=C2\SC(=S)N(C3CCS(=O)(=O)C3)C2=O)c2ccccc21)Nc1ccc(F)cc1 (stereo unspecified),inconclusive: 91.1%
12,Cc1cc(C(=O)Nc2ccccc2N2CCCCC2)no1,inconclusive: 111%
13,COC(=O)c1ccc2c(=O)n(CC3CCCO3)c(SCC(=O)Nc3ccc(OC)cc3OC)nc2c1 (stereo unspecified),inconclusive: 89.1%
14,COc1cc(C)nc(N(Cc2ccccc2)S(=O)(=O)c2ccc(C)cc2)n1,inconclusive: 125%
15,CCc1ccc(NC(=S)N(CCCN2CCOCC2)Cc2ccco2)cc1,inconclusive: 102%
16,On1nnc2cc(C(F)(F)F)ccc21,inconclusive: 111%
17,O=C(Nc1ccccc1N1CCN(C(=O)c2ccccc2)CC1)c1cccc(Cl)c1,inconclusive: 72.1%
18,O=[N+]([O-])c1ccc2c(c1)/C(=N\O)c1ccccc1-2,inconclusive: 92.7%
19,O=C(NCC1COc2ccccc2O1)C1(c2ccccc2)CCCC1 (stereo unspecified),inactive: 103%
20,Cc1cc(C(=O)OCC(=O)Nc2cccc(S(=O)(=O)N(C)C)c2)c(C)o1,inconclusive: 256%
21,CCn1c(NC(=O)c2ccccc2F)c(-c2cccs2)c(=O)c2ccccc21,inconclusive: 92%
22,O=C(NCc1ccc2c(c1)OCO2)C(=O)Nc1ccccc1,inconclusive: 83.2%
23,CC1Cc2ccccc2N1CC(=O)NC(=O)NCc1ccccc1 (stereo unspecified),inconclusive: 103%

# Reference: PubChem BioAssay AID1439 (NMMLSC, 2008)
